Measured values taken from PubChem BioAssay AID445 (National Center for Advancing Translational Sciences (NCATS), 2006).
“And” between values parts separate entries of the source, which are not always exact repeats. Identical values can stand only once. The list shows a part of the results. Shown are side measurements of this screen, not its main read-out; they come without a call. Compounds called inactive in the main read-out are mostly missing here. Potencies come from curve fits of mixed quality, noted in brackets.

Test: IkB Signaling
Details: ABC-DLBCL IkBa-CBG/CBR dual luciferase ratio (green luciferase fused to IkBa over red control in OCI-Ly3 lymphoma cells), 4 h
Method in brief: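 In this assay, an IκBα–CBG68 fusion accumulates when IKK-driven degradation is blocked; native CBR normalizes for cell number. OCI-Ly3 cells were treated 4 h with compound and doxycycline, then green and red light read after Chroma-Glo addition.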

[1] = measured here: control luc red channel unless noted
[2] = measured here: IkB-luc green channel
[3] = measured here: control luc red channel

With COc1ccccc1CNc1ncnc2onc(-c3ccc(Cl)cc3)c12 the AC50 [1] was 39.8 µM [falling, single point].
In the case of Cc1nc2ccccc2c2oc(C(=O)NCc3ccc4c(c3)OCO4)cc12, the AC50 [1] is reported as 3.98 µM [falling, full curve].
For CCCS(=O)(=O)NCCc1sc2nc(-c3ccc(Cl)cc3)nn2c1C, the AC50 [1] was 5.01 µM [rising, partial curve].
With O=C(c1ccco1)N1CCN(C(=O)C2CCCc3c2[nH]c2ccc(Cl)cc32)CC1 (configuration not stated) the AC50 [1] was 31.6 µM [falling, single point].
For CCOC(=O)c1c(NC(=O)c2cc(=O)c3c(C)cc(C)cc3o2)sc(C)c1C, the AC50 [1] was 12.6 µM [falling, partial curve].
For COc1ccc(-n2nc3c(N4CCCC(C(=O)NCc5ccccc5C)C4)nnc(C)c3c2C)cc1 (configuration not stated), the AC50 [1] was 12.6 µM [falling, partial curve].
For COc1ccccc1NC(=O)CC1C(=O)Nc2c1c(=O)n(C)c(=O)n2C (configuration not stated), the AC50 [1] was 10 µM [falling, partial curve].
For CCOc1ccc(NC(=O)C(C)SC(N)=O)cc1 (configuration not stated), the AC50 [2] was 7.94 µM [rising, full curve] and the AC50 [3] was 5.01 µM [rising, full curve, poor fit].
In the case of Cc1ccc(-n2ncc(C(=O)NCCN3CCc4ccccc4C3)c2C2CCN(C(=O)OC(C)(C)C)CC2)c(C)c1, the AC50 [1] is reported as 31.6 µM [falling, single point].
In the case of Cc1oc(-c2ccc(Cl)cc2)nc1CN1CCCC(C(=O)NCc2cccnc2)C1 (configuration not stated), the AC50 [1] is reported as 10 µM [falling, partial curve].
In the case of Cc1ccc2nc(-c3ccc(N4CCOCC4)cc3)c(Nc3ccccc3C)n2c1, the AC50 [1] is reported as 39.8 µM [falling, single point].
With COc1ccc(-n2c(COc3cccc(C)c3)nnc2SCC(=O)NCc2ccco2)cc1 the AC50 [1] was 15.8 µM [falling, partial curve].
In the case of O=S1(=O)C=C(Sc2nc3cc(Cl)ccc3o2)c2ccccc21, the AC50 [2] is reported as 3.16 µM [rising, partial curve] and the AC50 [3] is reported as 3.98 µM [falling, partial curve].
With Cc1cccc(C(=O)NCc2nnc(SCC(=O)Nc3ccccc3F)n2-c2ccccc2)c1 the AC50 [1] was 20 µM [falling, single point].
In the case of COc1ccc(Cl)cc1C(=O)NCC(c1ccco1)N1CCCC1 (configuration not stated), the AC50 [1] is reported as 6.31 µM [falling, partial curve].
With CC(=O)N1c2ccc(S(=O)(=O)NCC3CCC(C(=O)Nc4cccc(F)c4)CC3)cc2CC1C (configuration not stated) the AC50 [1] was 15.8 µM [falling, partial curve].
With COc1ccccc1Nc1nn2c(=O)c3ccc(C(=O)NC4CCCCC4)cc3nc2s1 the AC50 [1] was 0.1 µM [rising, full curve].
In the case of O=C(c1ccccc1)n1nc(-c2ccccc2)nc1NCc1ccco1, the AC50 [1] is reported as 15.8 µM [falling, partial curve].
For O=C(CSc1nc2ccccc2o1)c1cc2ccccc2oc1=O, the AC50 [1] was 12.6 µM [falling, partial curve].
In the case of CCOC(=O)N1CCc2c(sc(NCc3ccc(N(C)C)cc3)c2C(=O)Nc2ccccc2OCC)C1, the AC50 [1] is reported as 10 µM [falling, partial curve].
In the case of Nc1ccc2nc(-c3ccc(Cl)cc3)[nH]c2c1, the AC50 [1] is reported as 15.8 µM [falling, partial curve].
In the case of COc1cccc(C2C=C(c3ccc(C)cc3)Nc3c(C(=O)Nc4ccc(F)cc4)cnn32)c1OC (configuration not stated), the AC50 [1] is reported as 20 µM [falling, single point].
For CC(C)(C)c1cc(CNC2CS(=O)(=O)C[C@@H]2O)cc(C(C)(C)C)c1O (some centres not stated), the AC50 [1] was 12.6 µM [falling, partial curve].
With COc1ccc(CN(C(=O)c2ccc(OCC(C)C)cc2)C2CCS(=O)(=O)C2)cc1 (configuration not stated) the AC50 [1] was 7.94 µM [falling, partial curve].
In the case of COc1ccc(CCNC(=O)CCCCn2c(=O)c3ccccc3n(Cc3cccc(C)c3)c2=O)cc1OC, the AC50 [1] is reported as 39.8 µM [falling, single point].
In the case of Cc1nc2ncnn2c(N2CCN(c3cccc(C(F)(F)F)c3)CC2)c1C, the AC50 [1] is reported as 15.8 µM [falling, partial curve].
With CCOc1ccc(CCNc2ncnc3onc(C)c23)cc1OCC the AC50 [1] was 15.8 µM [falling, partial curve, poor fit].
In the case of O=c1oc(Cl)c(Cl)c2ccccc12, the AC50 [2] is reported as 7.94 µM [rising, partial curve] and the AC50 [3] is reported as 25.1 µM [falling, partial curve].
In the case of CC(=Nc1ccc(O)cc1)c1sc2ccccc2c1O, the AC50 [1] is reported as 20 µM [falling, partial curve].
With CCCCN(C)c1nc(-c2ccco2)c2c(c1C#N)CC(C)(C)OC2 the AC50 [2] was 31.6 µM [falling, partial curve] and the AC50 [3] was 15.8 µM [falling, partial curve].
In the case of Cc1cc(N2CCCCC2)n2ncc(-c3ccc(Cl)cc3)c2n1, the AC50 [1] is reported as 0.0251 µM [falling, full curve].
For CCc1ccc(NC(=O)c2ccc(CNS(=O)(=O)c3ccc4c(c3)C(C)(C)C(=O)N4C)cc2)cc1, the AC50 [1] was 7.94 µM [falling, single point].
In the case of CC1=C(\C=C/C(C)=C/C=C\C(C)=C\C(=O)O)C(C)(C)CCC1, the AC50 [1] is reported as 10 nM [rising, full curve, poor fit] [measured here: IkB-luc green channel] and 3.98 µM [rising, partial curve] [measured here: IkB-luc green channel].
With CCOC(=O)c1cc(-c2cc3ccccc3o2)n[nH]1 the AC50 [1] was 20 µM [falling, single point].
In the case of COc1cccc2c1Oc1ncccc1N(C(=O)CCC(=O)NCc1ccc(OC(C)C)cc1)C2, the AC50 [1] is reported as 2.51 µM [falling, partial curve, poor fit].
In the case of Cc1nn(CC(=O)NC(C)c2ccccc2)c(=O)c2cc3occc3n12 (configuration not stated), the AC50 [1] is reported as 0.0158 µM [rising, full curve].
In the case of NC(=O)COc1ccc(-c2noc(COc3ccc(Cl)cc3)n2)cc1, the AC50 [1] is reported as 0.2 µM [rising, full curve, poor fit].
For COc1ccc2c(c1)CC(C(=O)Nc1c(C)cc(C)cc1C)CO2 (configuration not stated), the AC50 [1] was 7.94 µM [falling, partial curve].
